According to US20180273617A1 (AstraZeneca / MedImmune, published 2018):
These are yes or no findings as the source states them, for the method shown. Some binding calls cover weakened binding; strength is not graded here.

T1: human ASCT2 (SLC1A5) (human, UniProt Q15758 1-541)
T1 sequence (looked up): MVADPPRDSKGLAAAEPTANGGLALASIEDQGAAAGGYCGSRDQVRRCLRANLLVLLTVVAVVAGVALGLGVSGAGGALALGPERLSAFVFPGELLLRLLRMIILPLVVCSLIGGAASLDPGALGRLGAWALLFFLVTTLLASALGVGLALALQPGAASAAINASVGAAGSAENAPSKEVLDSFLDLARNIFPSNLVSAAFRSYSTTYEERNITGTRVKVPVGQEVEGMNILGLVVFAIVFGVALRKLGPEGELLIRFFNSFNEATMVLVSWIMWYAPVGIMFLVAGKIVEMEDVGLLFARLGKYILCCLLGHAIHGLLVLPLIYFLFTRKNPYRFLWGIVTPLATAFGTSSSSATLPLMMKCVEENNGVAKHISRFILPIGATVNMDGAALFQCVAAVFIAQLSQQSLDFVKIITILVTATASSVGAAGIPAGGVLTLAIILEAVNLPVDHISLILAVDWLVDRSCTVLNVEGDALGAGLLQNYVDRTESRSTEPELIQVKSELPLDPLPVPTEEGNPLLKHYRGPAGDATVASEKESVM

T2: cynomolgus monkey ASCT2 (cynomolgus monkey (Macaca fascicularis)) (UniProt G7PXZ3)
T2 sequence: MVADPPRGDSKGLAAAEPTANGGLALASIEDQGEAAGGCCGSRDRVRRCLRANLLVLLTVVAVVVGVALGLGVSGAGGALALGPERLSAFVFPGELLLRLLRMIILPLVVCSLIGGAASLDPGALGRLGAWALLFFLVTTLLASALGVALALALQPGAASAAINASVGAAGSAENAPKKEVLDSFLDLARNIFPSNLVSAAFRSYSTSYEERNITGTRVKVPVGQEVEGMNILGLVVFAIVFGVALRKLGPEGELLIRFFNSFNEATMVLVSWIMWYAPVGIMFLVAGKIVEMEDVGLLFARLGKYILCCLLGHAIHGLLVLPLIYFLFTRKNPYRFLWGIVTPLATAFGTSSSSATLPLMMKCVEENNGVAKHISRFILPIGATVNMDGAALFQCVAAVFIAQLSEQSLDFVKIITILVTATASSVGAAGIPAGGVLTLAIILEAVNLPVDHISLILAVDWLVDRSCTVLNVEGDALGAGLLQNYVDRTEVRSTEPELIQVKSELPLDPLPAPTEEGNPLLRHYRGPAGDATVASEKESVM


Columns and labels:
human ASCT2 (SLC1A5) = biological target: T1, human ASCT2 (SLC1A5); assay: flow cytometry on WiDr cells with ASCT2 shRNA or non-target shRNA
[1] = biological target: T2, cynomolgus monkey ASCT2 (cynomolgus monkey (Macaca fascicularis)); assay: flow cytometry on CHO cells expressing CyASCT2

binding (human ASCT2 (SLC1A5))	binding [1]	Binder
binds		anti-ASCT2 antibody 1e8 (original) (antibody, V domains shown) VH: QVQLQQWGAGLLKPSETLSLTCAVYGGSFSGYYWSWIPQPPGKGVEWIGEINHSGSTNYNPSLKSRVTISSDTSKNQFSLKLTSVTAADTAVYYCARGQGKNWNYDYFDYWGQGTLVTVSS VL: DIQMTQSPSTLSASVGDRVTLTCRASQSIRSWLAWYQQKPGKAPKLLIYKASSLKSGVPSRFSGSGSGTDFTLTISSLQPDDFATYYCQQYYSFSRTFGQGTKVEIK
	binds	germlined 17c10 antibody (antibody, V domains shown) VH: QVQLQQWGAGLLKPSETLSLTCAVYGGSFSGYYWSWIRQPPGKGLEWIGEIHHSGGANYNPSLKSRVTISVDTSKNQFSLKLSSVTAADTAVYYCARGQGKNWHYDYFDYWGQGTLVTVSS VL: DIQMTQSPSTLSASVGDRVTITCRASQSIRSWLAWYQQKPGKAPKLLIYKASILKIGVPSRFSGSGSGTEFTLTISSLQPDDFATYYCQQYYSYSRTFGQGTKVEIK
	binds	anti-ASCT2 antibody 17c10 (original, non-germlined; parental 17c10) (antibody, V domains shown) VH: QVQLQQWGAGLLKPSETLSLTCAVYGGSFSGYYWSWIRQPPGKGLEWIGEIHHSGGANYNPSLKSRVTISVDTSKNQFSLKLTSVTAADTAVYYCARGQGKNWHYDYFDYWGQGTLVTVSS VL: DIQMTQSPSTLSTSVGDRVTLTCRASQSIRSWLAWYQQNPGKAPKLLIYKASILKIGVPSRFSGSGSGTDFTLTITSLQPDDFATYYCQQYYSYSRTFGQGTKVEIK
